Experimental findings from the M2OR odorant receptor database are described below.

Structures are written as SMILES. The list shows a part of the results, in another mix than the full data. Calls are pooled over several reports, among them a noisy single-well screen. This is one part of the list.
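Also: active if original authors judged signal statistically different from baseline.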

For the first test, the system named is T1, OR1N2.
T1 sequence (whole entry): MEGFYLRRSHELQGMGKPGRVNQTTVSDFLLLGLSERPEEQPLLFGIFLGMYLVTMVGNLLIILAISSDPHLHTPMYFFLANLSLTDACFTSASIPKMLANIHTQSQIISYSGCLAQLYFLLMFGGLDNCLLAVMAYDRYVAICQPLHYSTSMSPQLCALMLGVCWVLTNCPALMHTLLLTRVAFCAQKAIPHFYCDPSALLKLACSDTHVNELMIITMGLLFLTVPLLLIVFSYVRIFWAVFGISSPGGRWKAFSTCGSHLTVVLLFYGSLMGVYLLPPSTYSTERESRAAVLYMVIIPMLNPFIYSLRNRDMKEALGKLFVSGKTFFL
Particulars: stereoisomer not certain. The procedure, abridged: (§1)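 Transient luciferase assays in mammalian cell lines were common, though methods varied by source. The values come from published papers and their supplementary material, with extra details from the original authors when needed. Responsive refers to a measured signal the original authors judged statistically different from baseline, and non-responsive (inactive) to the remainder.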
With `C=CCSCC=C`, the “odorant receptor agonist call” value was “inactive”.

Take `CC1=CCC(C(C)(C)O)CC1` (stereo not given): the “odorant receptor agonist call” value was “inactive”.

`CC12C=CCC1C1CCC3=CC(=O)CCC3(C)C1CC2` (stereo not given): the “odorant receptor agonist call” value was “inactive”.

`CCCCCCCC=CC=O`: the “odorant receptor agonist call” value is “inactive”.

As for `CCCCCCCCCC=O`, the “odorant receptor agonist call” value is “inactive”.

With `CC(=O)OCC=C(C)CCC=C(C)C`, the “odorant receptor agonist call” value was “inactive”.

As for `COc1cc(C)ccc1O`, the “odorant receptor agonist call” value was “inactive”.

`CC(=O)OC1CC2CCC1(C)C2(C)C` (stereo not given): the “odorant receptor agonist call” value was “inactive”.

Turning to `CC(C)(C)c1ccc(CCC=O)cc1`, the “odorant receptor agonist call” value was “inactive”.

`CCC=CCCO`: the “odorant receptor agonist call” value was “inactive”.

For the compound `O=C1CCCCC1`, the “odorant receptor agonist call” value is “inactive”.

Turning to `COC(=O)c1ccccc1`, the “odorant receptor agonist call” value was “inactive”.

Take `c1cnccn1`: the “odorant receptor agonist call” value is “inactive”.

Take `CC(=O)c1ccccc1`: the “odorant receptor agonist call” value is “inactive”.

For the compound `CC1=NC(C)SC1C` (stereo not given), the “odorant receptor agonist call” value was “inactive”.

As to `O=C1CCCCCCCCCCCC(=O)OCCO1`, the “odorant receptor agonist call” value was “inactive”.

Turning to `CCCCCCOC(=O)CCC`, the “odorant receptor agonist call” value was “inactive”.

In the case of `CC(C)C(=O)O`, the “odorant receptor agonist call” value is “inactive”.

For `c1ccc(Oc2ccccc2)cc1`, the “odorant receptor agonist call” value is “inactive”.

`CC(=O)OC(C)(C)C1CC=C(C)CC1` (stereo not given): the “odorant receptor agonist call” value is “inactive”.

Turning to `CCCCCC(C)=O`, the “odorant receptor agonist call” value is “inactive”.

As for `COc1ccccc1O`, the “odorant receptor agonist call” value was “inactive”.

For another test, the system named is T2, OR1Q1.
T2 sequence (whole entry): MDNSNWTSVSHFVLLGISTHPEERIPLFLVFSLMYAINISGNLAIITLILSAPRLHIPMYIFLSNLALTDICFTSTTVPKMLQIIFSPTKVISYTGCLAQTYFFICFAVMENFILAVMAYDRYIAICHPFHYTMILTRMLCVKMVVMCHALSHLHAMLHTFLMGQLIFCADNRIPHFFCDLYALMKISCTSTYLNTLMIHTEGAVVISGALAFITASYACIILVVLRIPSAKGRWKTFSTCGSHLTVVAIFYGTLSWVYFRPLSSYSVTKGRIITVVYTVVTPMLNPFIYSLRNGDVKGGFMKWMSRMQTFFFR
Particulars: stereoisomer not certain. The procedure, abridged:
as §1
For `C=CCSCC=C`, the “odorant receptor agonist call” value is “inactive”.

As to `CC1=CCC(C(C)(C)O)CC1` (stereo not given), the “odorant receptor agonist call” value is “inactive”.

As for `CC12C=CCC1C1CCC3=CC(=O)CCC3(C)C1CC2` (stereo not given), the “odorant receptor agonist call” value was “inactive”.

`CCCCCCCC=CC=O`: the “odorant receptor agonist call” value is “inactive”.

Take `CCCCCCCCCC=O`: the “odorant receptor agonist call” value was “inactive”.

Turning to `CC(=O)OCC=C(C)CCC=C(C)C`, the “odorant receptor agonist call” value was “inactive”.

For the compound `COc1cc(C)ccc1O`, the “odorant receptor agonist call” value is “inactive”.

Consider `CC(=O)OC1CC2CCC1(C)C2(C)C` (stereo not given), for which the “odorant receptor agonist call” value was “inactive”.

In the case of `CC(C)(C)c1ccc(CCC=O)cc1`, the “odorant receptor agonist call” value is “inactive”.

For `CCC=CCCO`, the “odorant receptor agonist call” value is “inactive”.

Turning to `O=C1CCCCC1`, the “odorant receptor agonist call” value was “inactive”.

For the compound `COC(=O)c1ccccc1`, the “odorant receptor agonist call” value was “inactive”.

As to `c1cnccn1`, the “odorant receptor agonist call” value is “inactive”.

`CC(=O)c1ccccc1`: the “odorant receptor agonist call” value is “inactive”.

With `CC1=NC(C)SC1C` (stereo not given), the “odorant receptor agonist call” value is “inactive”.

Consider `O=C1CCCCCCCCCCCC(=O)OCCO1`, for which the “odorant receptor agonist call” value was “inactive”.

In the case of `CCCCCCOC(=O)CCC`, the “odorant receptor agonist call” value was “inactive”.

On to `CC(C)C(=O)O`, for which the “odorant receptor agonist call” value is “inactive”.

As to `c1ccc(Oc2ccccc2)cc1`, the “odorant receptor agonist call” value was “inactive”.

For the compound `CC(=O)OC(C)(C)C1CC=C(C)CC1` (stereo not given), the “odorant receptor agonist call” value was “inactive”.

For `CCCCCC(C)=O`, the “odorant receptor agonist call” value is “inactive”.

Take `COc1ccccc1O`: the “odorant receptor agonist call” value is “inactive”.

The subject of another test is T3, OR1S1.
T3 sequence (whole entry): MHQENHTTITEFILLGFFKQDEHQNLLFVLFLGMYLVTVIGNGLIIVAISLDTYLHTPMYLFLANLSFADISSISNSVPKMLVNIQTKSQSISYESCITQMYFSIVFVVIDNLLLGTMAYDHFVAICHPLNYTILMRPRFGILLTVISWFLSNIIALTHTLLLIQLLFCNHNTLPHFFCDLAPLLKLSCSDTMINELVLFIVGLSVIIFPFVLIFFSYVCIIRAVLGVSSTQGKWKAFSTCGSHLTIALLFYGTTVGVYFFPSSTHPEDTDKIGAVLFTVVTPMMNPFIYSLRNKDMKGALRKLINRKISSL
As to conditions: stereoisomer not certain. The essentials:
as §1
For the compound `C=CCSCC=C`, the “odorant receptor agonist call” value is “inactive”.

With `CC1=CCC(C(C)(C)O)CC1` (stereo not given), the “odorant receptor agonist call” value was “inactive”.

Take `CC12C=CCC1C1CCC3=CC(=O)CCC3(C)C1CC2` (stereo not given): the “odorant receptor agonist call” value was “inactive”.

Turning to `CCCCCCCC=CC=O`, the “odorant receptor agonist call” value is “inactive”.

With `CCCCCCCCCC=O`, the “odorant receptor agonist call” value was “inactive”.

As for `CC(=O)OCC=C(C)CCC=C(C)C`, the “odorant receptor agonist call” value was “inactive”.

On to `COc1cc(C)ccc1O`, for which the “odorant receptor agonist call” value was “inactive”.

`CC(=O)OC1CC2CCC1(C)C2(C)C` (stereo not given): the “odorant receptor agonist call” value was “inactive”.

`CC(C)(C)c1ccc(CCC=O)cc1`: the “odorant receptor agonist call” value is “inactive”.

Regarding `CCC=CCCO`, the “odorant receptor agonist call” value was “inactive”.

On to `CC(C)(O)CCCC1=CCC(C=O)CC1` (stereo not given), for which the “odorant receptor agonist call” value is “active”.
